Data as given in PubChem BioAssay AID1259254 (NCATS, 2017)

- Purpose: 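Gene knock-downs that lead to re-replication, shown by excess G2 DNA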 (primary screen)
- Cells: human HCT116 colorectal cancer cells
- Reagents: single siRNA against human genes
- Duration: 3 days
- Detection: 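Imaged Hoechst DNA stain sorts each cell into a cycle phase by DNA amount; per plate, G2 fraction set to 0% for non-targeting and 100% for GMNN siRNA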
- Direction: G2 robust z-score and G2 cells, % of GMNN control: higher = more G2 cells, more excess DNA replication; raw share of cells in G2: higher = larger share of cells with G2 DNA content
- Call rule: 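Active siRNAs have a G2 robust z of 5 or more median absolute deviations over the median, which in these data means about 38% or higher of GMNN control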
Shown is one part, drawn at random, of about 59,000 reagents tested. In the full data, about 1,550 (2.6%) got an active call. 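G2 share is only a proxy for re-replication; each gene was hit by three separate siRNAs, and active genes were retested.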 Raw values are not corrected between plates. The numbers tell different reagents against one gene apart. The record does not give: the amount of reagent.

gene,reagent no.,G2 robust z-score,"G2 cells, % of GMNN control",raw share of cells in G2 (%),call
IFITM3P2,1,-0.134,2.02,3.54,inactive
IFITM3P2,2,2.65,21.6,10.6,inactive
IFITM3P2,3,1.31,12.1,7.9,inactive
MAPRE2,1,-0.129,2.06,5.79,inactive
MAPRE2,2,1.77,15.4,10.5,inactive
MAPRE2,3,-0.188,1.64,3.79,inactive
USH2A,1,3.08,24.6,13.2,inactive
USH2A,2,0.1,3.67,6.57,inactive
USH2A,3,-0.364,0.405,3.25,inactive
LINC02871,1,-0.52,-0.688,3.34,inactive
LINC02871,2,-0.337,0.598,3.77,inactive
LINC02871,3,0.399,5.77,4.91,inactive
LRFN1,1,-0.687,-1.86,4.87,inactive
LRFN1,2,1.92,16.5,10.2,inactive
LRFN1,3,0.817,8.72,7.39,inactive
DEGS1,1,-0.672,-1.76,4.08,inactive
DEGS1,2,1.78,15.5,11.6,inactive
DEGS1,3,0.584,7.08,7.75,inactive
TPCN1,1,-0.381,0.289,5.39,inactive
TPCN1,2,-0.19,1.63,5.33,inactive
TPCN1,3,-0.285,0.962,4.75,inactive
PAGE4,1,-0.0624,2.53,6.47,inactive
PAGE4,2,2.06,17.5,11.2,inactive
PAGE4,3,0.174,4.19,4.93,inactive
TMPRSS12,1,1.59,14.1,11.6,inactive
TMPRSS12,2,0.0721,3.47,5.62,inactive
TMPRSS12,3,-0.386,0.249,4.35,inactive
ERBIN,1,0.28,4.94,6.29,inactive
ERBIN,2,-0.833,-2.89,3.08,inactive
ERBIN,3,1.09,10.7,6.4,inactive
TSN,1,-0.699,-1.95,4.77,inactive
TSN,2,-0.97,-3.86,3.21,inactive
TSN,3,-0.217,1.44,4.8,inactive
SCO2,1,-0.514,-0.648,2.98,inactive
SCO2,2,-0.379,0.299,4.87,inactive
SCO2,3,-0.242,1.27,5.68,inactive
MEOX1,1,0.455,6.17,7.92,inactive
MEOX1,2,-0.00918,2.9,6.48,inactive
MEOX1,3,-0.824,-2.83,2.26,inactive
CARNMT1,1,-0.0947,2.3,5.04,inactive
CARNMT1,2,1.09,10.6,6.47,inactive
CARNMT1,3,1.71,15,8.02,inactive

8 consecutive reagents from above:
gene,reagent no.,G2 robust z-score,"G2 cells, % of GMNN control",raw share of cells in G2 (%),call
ERBIN,3,1.09,10.7,6.4,inactive
TSN,1,-0.699,-1.95,4.77,inactive
TSN,2,-0.97,-3.86,3.21,inactive
TSN,3,-0.217,1.44,4.8,inactive
SCO2,1,-0.514,-0.648,2.98,inactive
SCO2,2,-0.379,0.299,4.87,inactive
SCO2,3,-0.242,1.27,5.68,inactive
MEOX1,1,0.455,6.17,7.92,inactive

Additional entries follow.
gene,reagent no.,G2 robust z-score,"G2 cells, % of GMNN control",raw share of cells in G2 (%),call
PDCD11,1,0.991,9.94,10.4,inactive
PDCD11,2,2.24,18.8,10.3,inactive
PDCD11,3,0.554,6.87,6.45,inactive
ZNF667,1,3.33,26.4,12.1,inactive
ZNF667,2,-0.287,0.947,6.34,inactive
ZNF667,3,0.674,7.71,6.05,inactive
RILPL1,1,-0.681,-1.83,3.36,inactive
RILPL1,2,-0.658,-1.66,2.53,inactive
RILPL1,3,-0.566,-1.02,3.78,inactive
RAB8A,1,1.31,12.2,10.3,inactive
RAB8A,2,-0.842,-2.96,4.22,inactive
RAB8A,3,-1.05,-4.43,1.73,inactive
ARHGAP9,1,0.796,8.57,9.2,inactive
ARHGAP9,2,-0.731,-2.18,3.58,inactive
ARHGAP9,3,0.267,4.85,5.99,inactive
CGRRF1,1,-0.996,-4.04,3.4,inactive
CGRRF1,2,-0.417,0.0338,4.15,inactive
CGRRF1,3,-0.5,-0.552,2.97,inactive
HDAC6,1,1.59,14.2,10.5,inactive
HDAC6,2,-0.628,-1.45,4.66,inactive
HDAC6,3,-0.778,-2.5,2.35,inactive
ZNF890P,1,2.14,18,10.6,inactive
ZNF890P,2,2.55,20.9,11.3,inactive
ZNF890P,3,0.336,5.33,4.93,inactive
SGK3,1,-0.199,1.57,6.08,inactive
SGK3,2,-0.794,-2.62,4.24,inactive
SGK3,3,0.0546,3.35,4.76,inactive
B3GALT9,1,-0.434,-0.0843,3.78,inactive
B3GALT9,2,-0.312,0.775,3.82,inactive
B3GALT9,3,-0.977,-3.91,3.17,inactive
GSTZ1,1,-0.644,-1.56,4.48,inactive
GSTZ1,2,0.868,9.07,9.14,inactive
GSTZ1,3,-0.736,-2.21,3.39,inactive
SLC15A2,1,0.0259,3.15,5,inactive
SLC15A2,2,1.97,16.9,11.4,inactive
SLC15A2,3,6.29,47.2,20.7,active
NIP7,1,-0.0454,2.65,4.55,inactive
NIP7,2,3.54,27.9,16,inactive
NIP7,3,0.705,7.93,5.81,inactive
TBC1D24,1,-0.415,0.0476,4.37,inactive
TBC1D24,2,-0.148,1.93,5.38,inactive
TBC1D24,3,-0.818,-2.79,2.15,inactive
EEF1B2,1,-0.555,-0.94,3.32,inactive
EEF1B2,2,-0.953,-3.74,3.88,inactive
EEF1B2,3,-1.34,-6.46,2.81,inactive
